Measurements from patent publication US20240262923A1.
No constants are given. Whether binding was seen depends on the method and setting. Some results given as binding are weak or reduced against the parent protein; the word gives no strength.

Chains of the proteins cited; added tags and fusions are not shown. Lines headed by an entry give the natural chain unless they say otherwise; changes in a name come on top. Residues count along the entry.
UniProt Q07011: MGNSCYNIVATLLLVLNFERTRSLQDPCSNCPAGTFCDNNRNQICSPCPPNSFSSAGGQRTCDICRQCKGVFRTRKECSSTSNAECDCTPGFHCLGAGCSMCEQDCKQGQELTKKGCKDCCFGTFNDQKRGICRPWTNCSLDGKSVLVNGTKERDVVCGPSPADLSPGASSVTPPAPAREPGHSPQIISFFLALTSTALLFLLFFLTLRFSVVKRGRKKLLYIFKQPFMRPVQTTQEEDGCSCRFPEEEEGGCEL
UniProt P41273, residues 71-254: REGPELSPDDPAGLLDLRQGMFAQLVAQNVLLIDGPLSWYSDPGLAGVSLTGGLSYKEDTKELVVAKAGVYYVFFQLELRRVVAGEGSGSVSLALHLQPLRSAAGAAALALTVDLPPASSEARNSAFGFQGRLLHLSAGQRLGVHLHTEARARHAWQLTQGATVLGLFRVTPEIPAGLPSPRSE

Target: human His-tagged 4-1BB recombinant protein (human) (UniProt Q07011)
Assay: ELISA on coated human His-tagged 4-1BB; the bound 4-1BBL itself is detected (curve '4-1BBL'), serial dilution of 4-1BBL

## 4-1BBL-Fc (from UniProt P41273 71-254) (Fc fusion)
  binding: binds
